Data: PMC7819943, “Rice protein-binding microarrays: a tool to detect cis-acting elements near promoter regions in rice”
This is one part of the list.

Each sequence was assayed against T1, OsSMF1 (Oryza sativa, UniProt Q6ZLB0 1-436) (assay: protein-binding microarray (RPBM); PBS, 2% BSA, 51.3 ng/ul salmon testes DNA, 50 uM zinc acetate, 200 nM TF, 25 C, 1 h; high values mean tight binding). Details: protein: recombinant; tags: N-terminal polyhistidine and DsRed monomer fusion (pET32a); chain copies: 2; label: CyDye5-dUTP incorporated in the synthesized complementary strand; 3' TTTTT single-stranded linker to array surface; dsDNA, one strand shown.
T1 sequence: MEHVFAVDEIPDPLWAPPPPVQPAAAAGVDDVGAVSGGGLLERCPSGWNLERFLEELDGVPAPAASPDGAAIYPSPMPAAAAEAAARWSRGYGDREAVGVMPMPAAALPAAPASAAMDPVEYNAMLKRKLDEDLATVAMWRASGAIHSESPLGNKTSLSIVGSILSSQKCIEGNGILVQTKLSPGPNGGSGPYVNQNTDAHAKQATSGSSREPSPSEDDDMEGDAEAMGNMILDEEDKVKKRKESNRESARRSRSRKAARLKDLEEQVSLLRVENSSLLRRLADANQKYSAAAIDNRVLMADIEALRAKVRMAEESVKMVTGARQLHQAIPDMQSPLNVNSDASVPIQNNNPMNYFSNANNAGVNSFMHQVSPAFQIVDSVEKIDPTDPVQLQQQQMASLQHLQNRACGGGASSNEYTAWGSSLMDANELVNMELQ
Outline: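 The binding signal for each feature is its fluorescence intensity in arbitrary units. An Axon 4000B scanner was used to read a custom Agilent array that had been made double-stranded with Cy5-dUTP primer extension, blocked with 2% BSA, incubated at 25 °C for 1 h with 200 nM protein in PBS, 2% BSA, salmon testes DNA and 50 µM zinc acetate, and washed. The protein was an N-terminal polyhistidine–DsRed transcription factor fusion from E. coli BL21-CodonPlus, purified on Ni–NTA.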

Point of comparison: “TTGTTCCTTCCCTTCTTTTGCTTCGGTACGTCATCCATGTCGGAGTCACCTAGTGCAG”, binding signal 8520 fluorescence intensity (a.u.). Against it:
- CATTGTCTTCTCTTCAAAAGTGCTTTGAAGATTTGGAGTACGGAGTCACCTAGTGCAG — lower, 3540 fluorescence intensity (a.u.)
- AGCTTCGGTTTTCTTACTCAGCACAACGGGGTGGTGGCGCCGGAGTCACCTAGTGCAG — lower, 5360 fluorescence intensity (a.u.)
- CCCTCTATAATTAGTGACTTGTAACCTCTTCTTCCCTTCCCGGAGTCACCTAGTGCAG — lower, 3820 fluorescence intensity (a.u.)
- GGTGCCACCCATTCTTTGTTGCCAACTTGCAGCATCAGTGCGGAGTCACCTAGTGCAG — lower, 3730 fluorescence intensity (a.u.)
- TATACAATTGCCTTACCTGTCCCCACCTGTCACATGCCTCCGGAGTCACCTAGTGCAG — lower, 4640 fluorescence intensity (a.u.)
- GCCGGCTTCACCGTGCGCGTGCCGTCTTGGACCCACCACTCGGAGTCACCTAGTGCAG — lower, 3140 fluorescence intensity (a.u.)
- CTCGGATTTAATGCATGACTCTTTATTCTTCCACGCATGACGGAGTCACCTAGTGCAG — lower, 3890 fluorescence intensity (a.u.)
- TTCCTCCTCCGGCCACCTCCGCCGGGCGTTGACCCCTACGCGGAGTCACCTAGTGCAG — lower, 3230 fluorescence intensity (a.u.)
- TGGTTGGTGGTGGTTAGCTAACACGCGGCATCTTCTCCTCCGGAGTCACCTAGTGCAG — lower, 4570 fluorescence intensity (a.u.)
- AAGAAATCTCTTCATAGATCTCCTGATGAAAGAATTTAACCGGAGTCACCTAGTGCAG — lower, 3730 fluorescence intensity (a.u.)
- AGAAGTGAGGTGGAGGTGCGGGGAATCGAACCCCGTGCCTCGGAGTCACCTAGTGCAG — lower, 3800 fluorescence intensity (a.u.)
- CCCTGCCACGTTGGCTGGGCCATGCTGGCAGCGCTCAGCGCGGAGTCACCTAGTGCAG — higher, 14100 fluorescence intensity (a.u.)
- GATCTTGTTTCAACGTCATTTTGCTGCGTCTGTTACAGTACGGAGTCACCTAGTGCAG — lower, 4110 fluorescence intensity (a.u.)
- AACACCACACGCAGGTCGACCTCGACTGGAAGCGCCTCCTCGGAGTCACCTAGTGCAG — higher, 17700 fluorescence intensity (a.u.)
- TCCTTAAACTTGTGTAGGTGTGTCATCTAGGTCCCTGAACCGGAGTCACCTAGTGCAG — lower, 3710 fluorescence intensity (a.u.)
- TGCTCCTACATGAAGGAACACATGGCATGTCGACTCAGGCCGGAGTCACCTAGTGCAG — lower, 3570 fluorescence intensity (a.u.)
- GAATGGCTTGTCGACACGTCGGCATATGCTCATGCATATGCGGAGTCACCTAGTGCAG — higher, 12100 fluorescence intensity (a.u.)
- CACGTAAGGGCCACATCAGTGCCACGTCAGATCAAAACCGCGGAGTCACCTAGTGCAG — higher, 29300 fluorescence intensity (a.u.)
- TCAAACTAACCACGTCAGCGACACATCAGTTAAAACCGCACGGAGTCACCTAGTGCAG — higher, 12400 fluorescence intensity (a.u.)
- TAAGATGGAAGTGAATCACATATCTTAACTTCACATTTAGCGGAGTCACCTAGTGCAG — lower, 3350 fluorescence intensity (a.u.)
- GTCGCTGTCGTCCTCGTCATCATCGCCGCCATCGCTGGATCGGAGTCACCTAGTGCAG — higher, 8830 fluorescence intensity (a.u.)
- TGAAATTCATGAACGTGGCATGAATGAAGATTTTCTCATCCGGAGTCACCTAGTGCAG — lower, 3140 fluorescence intensity (a.u.)
- ACGCTAGCCTTGCCGCCCTCGCGGAGGAATCCGCGCACAACGGAGTCACCTAGTGCAG — lower, 3320 fluorescence intensity (a.u.)
- GTGGATCTGGCTAGCCCATCACTGTGCTAGCAACCAACCTCGGAGTCACCTAGTGCAG — lower, 4650 fluorescence intensity (a.u.)
- ACTCCTACTCGACACGGAGTCGGCCTCGTCAGCCAGCTATCGGAGTCACCTAGTGCAG — lower, 4590 fluorescence intensity (a.u.)
- GAGACGAGGCGACGGCGACGACAGCGACAGCGCCGTGGCACGGAGTCACCTAGTGCAG — higher, 29900 fluorescence intensity (a.u.)
- ATATAGTATTGGTTGTGTATGTATGTAGTATCTCATTAGCCGGAGTCACCTAGTGCAG — lower, 3390 fluorescence intensity (a.u.)
- TCTTCTATTATATTGACGTGTATTTCTTTTAGCGTGTTAGCGGAGTCACCTAGTGCAG — higher, 10400 fluorescence intensity (a.u.)
- CTAAGGCCATGAACAGTACTCGTACGTGGCGATTGTCTCCCGGAGTCACCTAGTGCAG — lower, 3620 fluorescence intensity (a.u.)
- AAATCCAAAATGCTTTAGGAGATGACTCATCTTAAAACAACGGAGTCACCTAGTGCAG — lower, 5430 fluorescence intensity (a.u.)
- TCAAAGATTTGACAATGCCACTTGTGCGAGGAGCCGATTCCGGAGTCACCTAGTGCAG — lower, 3170 fluorescence intensity (a.u.)
- TATATATATATATATATATAAAGTGTATGACATGTGATCACGGAGTCACCTAGTGCAG — lower, 3970 fluorescence intensity (a.u.)
- AGTTGGGCTTGTCCTGATGAGCTGCATTGGCGTGGTTTGGCGGAGTCACCTAGTGCAG — lower, 3370 fluorescence intensity (a.u.)
- TAGATACGGCGGATGTGATTAGTATTCGAGATGACGCACGCGGAGTCACCTAGTGCAG — lower, 3700 fluorescence intensity (a.u.)
- GCTCAGCATCATCAGCTGCCACCACAGCTAGCTAGCCATACGGAGTCACCTAGTGCAG — lower, 4150 fluorescence intensity (a.u.)
- CCCCGTACACGTAGGACTTGTTTACTTTGCTACTATTTTCCGGAGTCACCTAGTGCAG — lower, 7140 fluorescence intensity (a.u.)
- CATGTCGACATGTTCACAAGCGGTACCAAGAGTCAAGACACGGAGTCACCTAGTGCAG — higher, 45800 fluorescence intensity (a.u.)
- ATGAAGAAATTAAACTTTTCAAGCGTGACAGGTGTCATCCCGGAGTCACCTAGTGCAG — lower, 5950 fluorescence intensity (a.u.)
- GTTTGTTATTGTCCATTTTAAATGTCGACTACATCAGCCCCGGAGTCACCTAGTGCAG — lower, 3540 fluorescence intensity (a.u.)
- TGCAACTTGGGAAGACTATGACGTACTCCCTATTTGTCAACGGAGTCACCTAGTGCAG — lower, 6230 fluorescence intensity (a.u.)
- GGGTTTGTGTTACATTATCGAGATCACCGATGATGGATGTCGGAGTCACCTAGTGCAG — lower, 3610 fluorescence intensity (a.u.)
